In paper PMC8124558:
No constants are given. Whether binding was seen depends on the method and setting.

Target: fibronectin (commercial recombinant protein) (human)
Test: ELISA; solid-phase microplate protein-binding assay: 96-well plate coated with 4 μg/mL recombinant protein at 4 °C overnight, blocked with 5% BSA/PBS; biotinylated peptide overnight at 4 °C (peptides at 500 μg/mL); streptavidin-HRP, absorbance at 450 nm; n = 2; both purified

| binding | Binder |
| --- | --- |
| no binding (tested: 500 μg/mL) | TPMMPETSQRFK (biotin at the N-terminal) [peptide-88] |
| no binding (tested: 500 μg/mL) | LPSTQPALPPNA (biotinylated at the N-terminal) [biotinylated scrambled peptide] |
